Test results taken from PMC5928161.
These are yes or no findings as the source states them, for the method shown. Binding seen in cells or lysates may run through a third protein. Binding can be weak; no strength is given.

Amino acid sequences for entries named in this document (tags omitted). A change or cut given only in a name is not applied to a line headed by its entry.
UniProt Q9JHF5: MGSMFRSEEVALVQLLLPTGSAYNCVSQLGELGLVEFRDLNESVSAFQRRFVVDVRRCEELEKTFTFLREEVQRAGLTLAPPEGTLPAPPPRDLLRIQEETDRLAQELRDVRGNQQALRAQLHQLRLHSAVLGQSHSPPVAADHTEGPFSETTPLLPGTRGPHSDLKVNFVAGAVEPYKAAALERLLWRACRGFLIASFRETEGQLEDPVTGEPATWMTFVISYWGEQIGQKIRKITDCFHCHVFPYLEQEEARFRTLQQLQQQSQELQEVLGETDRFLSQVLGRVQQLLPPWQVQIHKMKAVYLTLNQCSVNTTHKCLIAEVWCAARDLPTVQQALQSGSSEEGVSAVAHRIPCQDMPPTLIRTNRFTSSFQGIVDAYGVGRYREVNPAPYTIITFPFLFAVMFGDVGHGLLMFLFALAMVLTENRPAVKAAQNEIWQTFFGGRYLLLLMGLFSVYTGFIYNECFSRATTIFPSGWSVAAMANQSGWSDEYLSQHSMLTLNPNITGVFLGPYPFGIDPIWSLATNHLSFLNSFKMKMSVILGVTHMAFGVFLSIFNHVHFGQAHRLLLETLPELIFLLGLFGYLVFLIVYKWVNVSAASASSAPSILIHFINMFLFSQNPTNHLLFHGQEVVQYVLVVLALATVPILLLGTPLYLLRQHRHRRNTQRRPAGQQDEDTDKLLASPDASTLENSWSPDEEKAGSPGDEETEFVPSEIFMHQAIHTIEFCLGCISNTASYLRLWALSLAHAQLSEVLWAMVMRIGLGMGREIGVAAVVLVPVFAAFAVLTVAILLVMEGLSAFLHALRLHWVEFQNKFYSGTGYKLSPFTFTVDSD
UniProt Q9ERI2: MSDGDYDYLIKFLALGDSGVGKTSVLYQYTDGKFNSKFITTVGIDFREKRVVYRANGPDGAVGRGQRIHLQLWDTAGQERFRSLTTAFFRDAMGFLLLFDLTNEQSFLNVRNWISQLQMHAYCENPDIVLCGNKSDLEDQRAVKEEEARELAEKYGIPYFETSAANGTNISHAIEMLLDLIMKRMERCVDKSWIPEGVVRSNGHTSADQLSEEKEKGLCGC

Target: FLAG-tagged a3 isoform of the V-ATPase a subunit (mouse) (mouse) (UniProt Q9JHF5)
Experiment: co-IP; FLAG-tagged a subunit isoform and V5-tagged small GTPase co-expressed in HEK293T cells; lysed in IP buffer (1% Triton X-100, 10% glycerol, 50 mM Tris-HCl pH 7.4, 150 mM NaCl, 1 mM dithiothreitol, 1 mM EDTA); immunoprecipitated with an anti-FLAG antibody; Western blot for FLAG, the A subunit and V5

binding: binds
Substance: V5-fused dominant-negative form of Rab27A (from UniProt Q9ERI2)
